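Genome-wide siRNA knockdown in TC32 Ewing sarcoma cells, comparing luciferase light from an NR0B1-promoter reporter with a CMV-promoter reporter 48 hours after transfection.
Each siRNA was applied at 20 nM.
A z-score of the log NR0B1-over-CMV signal, less the median of siRNAs with the same seed; more negative means a stronger specific loss of the NR0B1 reporter.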

This is part of the screen; most of the strongest results are not listed here.
Sequences are the guide (antisense) strand, without overhang.

{"sirna": "UUUGGGACGACAUCUGCCU", "target gene": "PPIF", "seed-corrected z-score": "0.7925"}
{"sirna": "ACCAAUAUAAAUCAGUUCC", "target gene": "COLGALT2", "seed-corrected z-score": "-0.2766"}
{"sirna": "ACAUGUAUAAAUUCCACUC", "target gene": "ZPBP", "seed-corrected z-score": "1.124"}
{"sirna": "UCCGUCUCUAUUGGUGUCC", "target gene": "NCALD", "seed-corrected z-score": "0.1221"}
{"sirna": "UUACUUUCCGCAGCUUCUC", "target gene": "KRI1", "seed-corrected z-score": "0.1624"}
{"sirna": "UUUGUUGUUAACGUAGGGC", "target gene": "SERPINB11", "seed-corrected z-score": "-1.102"}
{"sirna": "GGAGGAAAAACCACUCUCU", "target gene": "WWP2", "seed-corrected z-score": "-0.02088"}
{"sirna": "UCCUUGGUUGUCACCACAC", "target gene": "C1QTNF8", "seed-corrected z-score": "-0.6612"}
{"sirna": "UUACUAUCGAUGCUUGUAG", "target gene": "EIF4G3", "seed-corrected z-score": "-0.7521"}
{"sirna": "AAUUUUUGACUUAACUUCU", "target gene": "EXOC5P1", "seed-corrected z-score": "0.3693"}
{"sirna": "ACAGGUAGUAGGCAUAGGG", "target gene": "AMPD2", "seed-corrected z-score": "-1.336"}
{"sirna": "UUUCUCUCCACGCACGGUC", "target gene": "SNN", "seed-corrected z-score": "1.61"}
{"sirna": "UUCUUUAGGACUAACAAAG", "target gene": "IGF2BP3", "seed-corrected z-score": "-0.2375"}
{"sirna": "UGACGUACCAGAUACACGC", "target gene": "KCNH8", "seed-corrected z-score": "-0.03488"}
{"sirna": "UCUCUUUCUAGGUUGCCGG", "target gene": "PRRG4", "seed-corrected z-score": "2.127"}
{"sirna": "UGUUUUCUUAGCGCUCUUC", "target gene": "HIST1H1C", "seed-corrected z-score": "0.08667"}
{"sirna": "UCUACCUUCAAACCCAUUC", "target gene": "LARS", "seed-corrected z-score": "-1.658"}
{"sirna": "ACAUUAACCAGCAGCACGC", "target gene": "IER2", "seed-corrected z-score": "0.11"}
{"sirna": "AUUCGCUCCACCUUGUCUG", "target gene": "NEDD8", "seed-corrected z-score": "-0.2809"}
{"sirna": "AAGCAUACUAUCCAGAUUC", "target gene": "BMPR1A", "seed-corrected z-score": "-1.354"}
{"sirna": "AUUACUAAGAAUUUUGUCC", "target gene": "CCDC80", "seed-corrected z-score": "1.79"}
{"sirna": "UGCUGUAGGAGGUUCCACU", "target gene": "KRT72", "seed-corrected z-score": "-0.7562"}
{"sirna": "UGACUUUGAAUUCGUCAGC", "target gene": "APOA4", "seed-corrected z-score": "-0.8728"}
{"sirna": "UCCCAUAUAGUUUGUAUCC", "target gene": "RBM41", "seed-corrected z-score": "-0.2749"}
{"sirna": "AAAACUGCAAAUACCUUUG", "target gene": "GPX8", "seed-corrected z-score": "-0.8095"}
{"sirna": "UCAUCGUGCACAGACAUCG", "target gene": "DOCK5", "seed-corrected z-score": "0.3498"}
{"sirna": "ACUCAGAGAAGUAACAUGG", "target gene": "AQP1", "seed-corrected z-score": "0.8042"}
{"sirna": "ACAUUGACAGUUCAUAUUG", "target gene": "ERAP2", "seed-corrected z-score": "0.6227"}
{"sirna": "AAACUGUGAGUAGAGCUUC", "target gene": "GSTM2", "seed-corrected z-score": "-1.7"}
{"sirna": "UGUCAUCCGAGUGAGAGGC", "target gene": "NLE1", "seed-corrected z-score": "-1.118"}
{"sirna": "UAUUGAGGACCCGAGAGAC", "target gene": "ATOX1", "seed-corrected z-score": "0.358"}
{"sirna": "UGCUUUACCACCUCAGCUC", "target gene": "YARS", "seed-corrected z-score": "0.3925"}
{"sirna": "UGUGCACUGAGGUAUCUCC", "target gene": "CPT2", "seed-corrected z-score": "0.9078"}
{"sirna": "UGUUGGUGAACGUAGGACC", "target gene": "HNF1A", "seed-corrected z-score": "-0.1019"}
{"sirna": "UUGAAGUAGAGCAUGUUGA", "target gene": "GDF11", "seed-corrected z-score": "1.843"}
{"sirna": "UUUCCUGUAAAAUCGAGUC", "target gene": "OGN", "seed-corrected z-score": "0.5996"}
{"sirna": "AGUCAUAGAACCACUAUCC", "target gene": "KRT86", "seed-corrected z-score": "-0.1905"}
{"sirna": "AGUUGAUACAGUGUUGUUC", "target gene": "TMEM41B", "seed-corrected z-score": "-0.5612"}
{"sirna": "UUAAUUACCUUCAAAAGCU", "target gene": "EMG1", "seed-corrected z-score": "0.5449"}

The results are deposited in PubChem (AID1159506; NCATS, 2015).